Some of the results follow. Further columns of the screen follow, without active or inactive calls. Compounds called inactive in the main read-out are mostly missing here. Potencies come from curve fits of mixed quality, noted in brackets.

Experimental findings from PubChem BioAssay AID2685 (National Center for Advancing Translational Sciences (NCATS), 2010) are described below.

The test in a line: qHTS Assay for Lipid Storage Modulators in Drosophila S3 Cells.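 As to cell number change: cells counted by Cell Tracker Red CMTPX staining in the red channel.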 Particulars: BODIPY lipid droplet fluorescence, 18-24 h; for cell number change: measured here: cell count max response, cells fed with added oleic acid. The method, boiled down:
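Drosophila S3 cells loaded with oleic acid (400 uM, as added) and compounds at several concentrations; lipid droplets imaged by 488-nm laser-scanning cytometry, 500–530 nm intensity and object ratio to cell channel. Percent activity normalized to 20 uM Triacsin C.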

[1] abbreviates: measured here: lipid fluorescence (Fed channel) AC50, cells fed with added oleic acid.
Where [2] appears, read: measured here: cell number channel AC50, cells fed with added oleic acid.

`Cc1c(NC(=O)c2ccc3c(c2)OCO3)c(=O)n(-c2ccccc2)n1C`: the cell number change was -5.34%. The AC50 under setting [1] was 29.1 µM [falling, single point].

`Cc1ccc(O)c(C2=NCCNC(C(F)(F)F)=C2)c1`: the cell number change was found to be 0.947%. Also, the AC50 under setting [1] was 4.11 µM [rising, full curve, poor fit].

`S=c1[nH]ncn1/N=C/c1ccccn1`: the cell number change is -42.3%. For the same molecule, the AC50 under setting [2] was 3.66 µM [falling, full curve]. Further, the AC50 under setting [1] was 18.4 µM [falling, single point].

As for `CCC(=O)N(C(=O)CC)N1CCN(c2ccncc2S(=O)(=O)N2CCCCC2)CC1`, the cell number change was -30.8%. The AC50 under setting [2] was 5.8 µM [falling, single point]. Further, the concentration at half-maximal activity (AC50) under setting [1] was 16.4 µM [falling, partial curve, poor fit].

Turning to `COc1ccc(OC)c2c(C)cc(N3CCCCCC3)nc12`, the cell number change was -3.16%.

As to `CCCN(CC(=O)Nc1ccccc1C)C(=O)c1ccc(N2CCCC2=O)cc1`, the cell number change is 25.7%. Under setting [1], the concentration at half-maximal activity (AC50) was 18.4 µM [rising, partial curve].

Consider `CC(=O)Nc1ccc(S(=O)(=O)N(C)c2ccccc2)cc1`, for which the cell number change is -7.22%. The AC50 under setting [1] was 0.00517 µM [falling, full curve, poor fit].

Regarding `Cc1cccc(-c2nnc(SCc3ccc(C#N)cc3)n2Cc2ccco2)c1`, the cell number change was -23.8%. Also, the AC50 under setting [1] was 14.6 µM [falling, single point].

For the molecule `CC1CCN(C(=O)c2ccc(NS(=O)(=O)c3ccccc3)cc2)CC1`, the AC50 runs as follows: under setting [2], 1.84 µM [falling, partial curve]; under setting [1], 29.1 µM [falling, single point].

For `O=C(c1ccc(-c2ccc([N+](=O)[O-])cc2)o1)N1CCCCCCC1`, the cell number change was -12.4%.

Turning to `CN(C)C=Nc1nonc1-c1ncn[nH]1`, the cell number change stood at 1.02%. In addition, the AC50 under setting [1] is 29.1 µM [falling, single point].

For `O=C(NCCC1=CCCCC1)c1cccc(S(=O)(=O)N2CCCCC2)c1`, the AC50 under setting [1] is 0.326 µM [rising, full curve].

Take `CCC(C)NC(=O)c1ccccc1NC(=O)COc1ccc(OC)cc1` (configuration not stated): the concentration at half-maximal activity (AC50) reads like this: under setting [2], 1.3 µM [rising, partial curve]; under setting [1], 5.8 µM [rising, partial curve].

In the case of `Cc1ccccc1-n1c(C)c(C#N)c(=O)c(-[n+]2ccccc2)c1[S-]`, the cell number change was -116%. The AC50 under setting [2] is 29.1 µM [falling, single point]. For the same molecule, the half-maximal activity concentration (AC50) under setting [1] was 23.1 µM [falling, partial curve].

Take `Cc1[nH]nc2oc(=O)c(CCO)c(C)c12`: under setting [1], the AC50 is 25.9 µM [falling, single point].

On to `COc1ccccc1NS(=O)(=O)c1cccc(C(=O)N2CCN(Cc3ccc4c(c3)OCO4)CC2)c1`, for which the cell number change is 49%. Under setting [2], the AC50 was 6.51 µM [rising, full curve]. Besides, the AC50 under setting [1] was 6.51 µM [rising, single point].
